Results are given in words; binding and its absence hold for the method and conditions named. Binding seen in cells or lysates may run through a third protein. These calls come from enrichment with a bait or labelling near it, and not all partners need be listed.
T1: RNF128, RING finger protein 128 (mouse (endogenous in lung tissue)) (UniProt Q9D304)
T1 sequence: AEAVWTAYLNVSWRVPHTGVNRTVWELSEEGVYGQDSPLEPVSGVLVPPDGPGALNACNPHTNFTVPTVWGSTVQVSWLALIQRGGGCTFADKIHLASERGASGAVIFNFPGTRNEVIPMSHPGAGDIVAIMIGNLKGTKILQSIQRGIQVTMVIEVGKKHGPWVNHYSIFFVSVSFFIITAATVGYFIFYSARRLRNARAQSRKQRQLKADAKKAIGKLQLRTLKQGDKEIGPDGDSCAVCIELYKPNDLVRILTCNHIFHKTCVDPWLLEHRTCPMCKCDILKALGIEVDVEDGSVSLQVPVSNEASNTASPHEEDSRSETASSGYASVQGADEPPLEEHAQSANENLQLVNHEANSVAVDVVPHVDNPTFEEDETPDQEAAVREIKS

Amino acid sequences for entries named in this document (tags omitted).
UniProt Q99PL5: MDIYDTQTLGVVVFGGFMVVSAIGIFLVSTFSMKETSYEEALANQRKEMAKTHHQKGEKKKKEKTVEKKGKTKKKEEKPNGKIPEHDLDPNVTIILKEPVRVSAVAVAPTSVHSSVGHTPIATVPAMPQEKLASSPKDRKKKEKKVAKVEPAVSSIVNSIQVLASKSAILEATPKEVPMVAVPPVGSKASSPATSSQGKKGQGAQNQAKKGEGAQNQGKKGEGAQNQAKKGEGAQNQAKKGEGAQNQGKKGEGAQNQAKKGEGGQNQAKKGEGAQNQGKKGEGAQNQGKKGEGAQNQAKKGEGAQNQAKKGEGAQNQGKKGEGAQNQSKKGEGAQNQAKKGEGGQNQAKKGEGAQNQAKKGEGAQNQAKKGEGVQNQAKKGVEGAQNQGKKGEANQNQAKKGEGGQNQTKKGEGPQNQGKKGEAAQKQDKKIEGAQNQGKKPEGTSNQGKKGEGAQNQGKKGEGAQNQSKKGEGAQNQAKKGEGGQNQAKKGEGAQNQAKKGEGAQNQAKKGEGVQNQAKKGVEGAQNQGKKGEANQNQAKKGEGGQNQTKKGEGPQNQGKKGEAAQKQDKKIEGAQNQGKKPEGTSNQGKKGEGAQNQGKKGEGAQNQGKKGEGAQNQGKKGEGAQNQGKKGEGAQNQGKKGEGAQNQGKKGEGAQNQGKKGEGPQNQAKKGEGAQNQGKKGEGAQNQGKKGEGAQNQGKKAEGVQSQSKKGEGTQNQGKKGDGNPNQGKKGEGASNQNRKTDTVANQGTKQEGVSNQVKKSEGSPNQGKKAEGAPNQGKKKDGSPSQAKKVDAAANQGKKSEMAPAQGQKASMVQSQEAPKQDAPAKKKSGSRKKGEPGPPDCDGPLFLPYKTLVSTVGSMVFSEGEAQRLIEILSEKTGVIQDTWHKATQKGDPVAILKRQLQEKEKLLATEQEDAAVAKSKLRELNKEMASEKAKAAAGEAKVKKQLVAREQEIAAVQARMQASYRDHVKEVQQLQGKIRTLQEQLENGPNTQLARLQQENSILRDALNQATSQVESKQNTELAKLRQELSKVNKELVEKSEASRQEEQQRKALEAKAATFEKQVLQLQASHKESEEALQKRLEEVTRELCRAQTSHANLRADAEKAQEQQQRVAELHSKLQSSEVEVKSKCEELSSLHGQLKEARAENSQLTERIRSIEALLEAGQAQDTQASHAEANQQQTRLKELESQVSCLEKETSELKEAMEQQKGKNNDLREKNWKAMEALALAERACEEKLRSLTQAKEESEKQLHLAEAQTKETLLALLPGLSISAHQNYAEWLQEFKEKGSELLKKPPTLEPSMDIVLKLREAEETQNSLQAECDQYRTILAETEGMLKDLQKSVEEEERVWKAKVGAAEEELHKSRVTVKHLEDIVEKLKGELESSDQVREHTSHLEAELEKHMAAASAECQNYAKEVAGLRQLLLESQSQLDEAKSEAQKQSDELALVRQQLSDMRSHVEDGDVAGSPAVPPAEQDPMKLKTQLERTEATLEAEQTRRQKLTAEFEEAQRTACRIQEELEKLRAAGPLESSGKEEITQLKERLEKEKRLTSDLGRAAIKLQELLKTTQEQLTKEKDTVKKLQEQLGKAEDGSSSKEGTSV
UniProt P26041: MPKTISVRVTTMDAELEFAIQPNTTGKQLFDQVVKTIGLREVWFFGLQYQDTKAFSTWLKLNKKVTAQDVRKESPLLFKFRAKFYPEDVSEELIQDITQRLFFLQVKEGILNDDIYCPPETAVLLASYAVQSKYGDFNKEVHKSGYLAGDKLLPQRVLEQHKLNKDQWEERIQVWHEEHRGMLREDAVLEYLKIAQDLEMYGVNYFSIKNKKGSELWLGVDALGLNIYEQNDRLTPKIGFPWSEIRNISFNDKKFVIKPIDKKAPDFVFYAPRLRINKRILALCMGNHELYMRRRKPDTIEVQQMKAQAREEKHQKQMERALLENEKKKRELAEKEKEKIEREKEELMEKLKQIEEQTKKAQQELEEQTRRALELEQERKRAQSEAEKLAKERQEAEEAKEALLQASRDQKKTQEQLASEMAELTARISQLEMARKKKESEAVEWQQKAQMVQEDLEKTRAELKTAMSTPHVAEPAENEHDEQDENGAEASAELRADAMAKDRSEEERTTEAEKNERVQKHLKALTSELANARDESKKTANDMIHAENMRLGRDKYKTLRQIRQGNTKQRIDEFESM
UniProt P61327: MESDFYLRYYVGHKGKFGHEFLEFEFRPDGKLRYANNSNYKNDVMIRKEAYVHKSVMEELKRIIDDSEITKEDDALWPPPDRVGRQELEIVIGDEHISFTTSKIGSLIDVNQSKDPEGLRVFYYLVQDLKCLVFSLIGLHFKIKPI
UniProt P26039: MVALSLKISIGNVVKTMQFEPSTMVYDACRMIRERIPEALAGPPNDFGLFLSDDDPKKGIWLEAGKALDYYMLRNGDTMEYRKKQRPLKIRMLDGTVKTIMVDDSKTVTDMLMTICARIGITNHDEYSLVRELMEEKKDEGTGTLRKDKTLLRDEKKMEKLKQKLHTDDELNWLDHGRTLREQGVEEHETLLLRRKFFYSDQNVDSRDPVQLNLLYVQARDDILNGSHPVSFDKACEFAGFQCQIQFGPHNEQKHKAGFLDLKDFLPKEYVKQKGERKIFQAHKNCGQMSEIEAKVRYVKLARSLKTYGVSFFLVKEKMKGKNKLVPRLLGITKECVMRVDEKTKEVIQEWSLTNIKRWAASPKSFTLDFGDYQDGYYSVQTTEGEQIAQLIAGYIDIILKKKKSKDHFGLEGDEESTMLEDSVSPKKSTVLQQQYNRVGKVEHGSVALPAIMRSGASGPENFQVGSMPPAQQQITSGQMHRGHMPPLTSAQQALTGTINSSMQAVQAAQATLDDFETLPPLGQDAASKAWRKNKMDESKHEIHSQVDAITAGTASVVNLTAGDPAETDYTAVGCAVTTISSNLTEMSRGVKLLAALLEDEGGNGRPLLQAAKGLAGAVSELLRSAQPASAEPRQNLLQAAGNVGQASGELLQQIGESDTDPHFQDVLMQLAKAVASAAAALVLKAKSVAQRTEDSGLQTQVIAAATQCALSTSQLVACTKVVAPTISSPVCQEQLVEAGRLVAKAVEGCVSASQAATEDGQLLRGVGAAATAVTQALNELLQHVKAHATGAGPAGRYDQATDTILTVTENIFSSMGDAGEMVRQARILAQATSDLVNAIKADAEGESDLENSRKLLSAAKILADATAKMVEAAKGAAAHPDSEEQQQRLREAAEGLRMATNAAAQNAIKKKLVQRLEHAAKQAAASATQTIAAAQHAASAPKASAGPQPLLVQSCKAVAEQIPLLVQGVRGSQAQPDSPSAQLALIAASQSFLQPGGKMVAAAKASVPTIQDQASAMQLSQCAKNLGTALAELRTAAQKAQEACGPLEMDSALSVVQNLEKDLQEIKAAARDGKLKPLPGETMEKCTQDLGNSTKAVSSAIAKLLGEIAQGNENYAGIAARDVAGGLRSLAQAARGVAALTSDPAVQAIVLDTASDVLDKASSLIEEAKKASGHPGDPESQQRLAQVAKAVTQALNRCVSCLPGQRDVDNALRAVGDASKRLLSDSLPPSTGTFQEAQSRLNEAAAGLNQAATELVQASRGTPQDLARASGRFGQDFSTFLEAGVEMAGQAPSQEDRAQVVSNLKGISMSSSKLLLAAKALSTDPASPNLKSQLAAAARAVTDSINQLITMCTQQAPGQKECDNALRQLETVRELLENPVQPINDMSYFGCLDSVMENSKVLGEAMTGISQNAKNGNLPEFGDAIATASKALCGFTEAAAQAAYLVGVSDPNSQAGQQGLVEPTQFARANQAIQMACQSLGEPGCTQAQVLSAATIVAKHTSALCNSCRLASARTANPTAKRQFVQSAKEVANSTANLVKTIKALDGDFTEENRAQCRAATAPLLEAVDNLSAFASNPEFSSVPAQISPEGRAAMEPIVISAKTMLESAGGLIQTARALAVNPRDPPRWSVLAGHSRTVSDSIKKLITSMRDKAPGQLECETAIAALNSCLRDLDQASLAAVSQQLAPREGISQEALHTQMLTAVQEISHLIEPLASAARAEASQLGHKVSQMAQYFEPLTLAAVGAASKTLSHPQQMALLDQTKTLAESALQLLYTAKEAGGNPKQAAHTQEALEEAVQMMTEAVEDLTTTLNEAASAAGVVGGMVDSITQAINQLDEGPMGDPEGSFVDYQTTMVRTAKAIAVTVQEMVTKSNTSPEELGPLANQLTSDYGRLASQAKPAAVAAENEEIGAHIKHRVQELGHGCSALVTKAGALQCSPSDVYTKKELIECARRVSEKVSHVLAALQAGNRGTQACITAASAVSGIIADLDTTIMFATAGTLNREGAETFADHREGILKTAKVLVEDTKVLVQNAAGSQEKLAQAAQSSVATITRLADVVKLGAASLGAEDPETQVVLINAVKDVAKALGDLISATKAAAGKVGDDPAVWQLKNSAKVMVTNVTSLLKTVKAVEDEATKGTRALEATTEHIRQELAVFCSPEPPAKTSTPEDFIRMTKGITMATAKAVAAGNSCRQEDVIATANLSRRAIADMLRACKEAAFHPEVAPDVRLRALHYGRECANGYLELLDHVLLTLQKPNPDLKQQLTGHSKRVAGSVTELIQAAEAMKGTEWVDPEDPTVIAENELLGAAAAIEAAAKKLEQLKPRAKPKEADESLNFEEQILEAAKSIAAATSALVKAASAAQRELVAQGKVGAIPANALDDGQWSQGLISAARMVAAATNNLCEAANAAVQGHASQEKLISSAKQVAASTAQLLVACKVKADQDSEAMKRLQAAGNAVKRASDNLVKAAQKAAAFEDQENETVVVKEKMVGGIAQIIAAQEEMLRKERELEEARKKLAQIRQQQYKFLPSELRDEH
UniProt Q6PDM2: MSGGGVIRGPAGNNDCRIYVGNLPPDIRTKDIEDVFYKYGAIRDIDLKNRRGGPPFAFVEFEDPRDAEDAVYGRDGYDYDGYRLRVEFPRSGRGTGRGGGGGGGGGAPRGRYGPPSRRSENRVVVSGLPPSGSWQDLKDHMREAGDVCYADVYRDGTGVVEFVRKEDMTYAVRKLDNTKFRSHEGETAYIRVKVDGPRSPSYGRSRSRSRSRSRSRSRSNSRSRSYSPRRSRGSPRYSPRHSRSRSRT
UniProt Q9JHL1: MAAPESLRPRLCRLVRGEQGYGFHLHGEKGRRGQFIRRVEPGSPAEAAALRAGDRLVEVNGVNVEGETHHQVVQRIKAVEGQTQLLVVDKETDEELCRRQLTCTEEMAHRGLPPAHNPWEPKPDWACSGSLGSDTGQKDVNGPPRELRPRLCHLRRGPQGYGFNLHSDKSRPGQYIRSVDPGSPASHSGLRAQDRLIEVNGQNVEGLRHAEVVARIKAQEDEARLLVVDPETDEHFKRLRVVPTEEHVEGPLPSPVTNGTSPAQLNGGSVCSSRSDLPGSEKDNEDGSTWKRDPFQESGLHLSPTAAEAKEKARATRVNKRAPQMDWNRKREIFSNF
UniProt P27546: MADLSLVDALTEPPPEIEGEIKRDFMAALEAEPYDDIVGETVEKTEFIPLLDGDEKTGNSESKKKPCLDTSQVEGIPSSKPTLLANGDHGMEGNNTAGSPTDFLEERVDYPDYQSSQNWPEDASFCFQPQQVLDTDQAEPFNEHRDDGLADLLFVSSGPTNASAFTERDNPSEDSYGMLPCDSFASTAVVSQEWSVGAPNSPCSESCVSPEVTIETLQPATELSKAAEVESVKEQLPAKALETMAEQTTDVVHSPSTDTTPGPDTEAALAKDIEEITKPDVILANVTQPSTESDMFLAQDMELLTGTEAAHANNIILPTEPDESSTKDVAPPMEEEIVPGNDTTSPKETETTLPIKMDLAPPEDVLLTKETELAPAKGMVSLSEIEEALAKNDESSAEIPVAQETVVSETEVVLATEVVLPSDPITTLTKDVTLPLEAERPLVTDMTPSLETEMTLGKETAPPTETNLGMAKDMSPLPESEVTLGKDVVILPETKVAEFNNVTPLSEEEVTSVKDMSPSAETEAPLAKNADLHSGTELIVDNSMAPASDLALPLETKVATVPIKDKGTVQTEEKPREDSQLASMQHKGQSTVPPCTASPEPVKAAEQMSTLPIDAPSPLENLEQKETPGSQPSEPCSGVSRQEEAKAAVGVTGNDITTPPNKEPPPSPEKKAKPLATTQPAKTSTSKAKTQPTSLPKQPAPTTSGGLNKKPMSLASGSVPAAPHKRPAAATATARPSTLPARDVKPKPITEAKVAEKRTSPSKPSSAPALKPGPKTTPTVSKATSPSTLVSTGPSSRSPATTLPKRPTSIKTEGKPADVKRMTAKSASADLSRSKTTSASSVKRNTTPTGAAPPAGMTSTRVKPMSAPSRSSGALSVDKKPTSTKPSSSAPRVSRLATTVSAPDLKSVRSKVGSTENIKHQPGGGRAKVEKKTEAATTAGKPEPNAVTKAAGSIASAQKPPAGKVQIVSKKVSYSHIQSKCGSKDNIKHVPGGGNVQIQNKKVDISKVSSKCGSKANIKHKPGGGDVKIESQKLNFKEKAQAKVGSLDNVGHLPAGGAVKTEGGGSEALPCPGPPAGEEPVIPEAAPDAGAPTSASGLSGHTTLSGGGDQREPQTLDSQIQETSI


Target: T1, RNF128, RING finger protein 128 (mouse (endogenous in lung tissue))
Assay: affinity purification with mass spectrometry; whole lung tissue lysates from WT and WT-LPS mice immunoprecipitated using the RNF128 antibody; trypsin digest, LC-MS/MS; hits at least 2-fold more abundant in WT-LPS than in WT

Molecule | binding
Ribosome-binding protein 1 (from UniProt Q99PL5 1-1605) | binds
Myeloperoxidase (from UniProt P11247) | binds
TNFAIP3-interacting protein 1 (from UniProt Q9WUU8 1-647) | binds
Heterogeneous nuclear ribonucleoprotein U (from UniProt Q8VEK3 1-800) | binds
Moesin (from UniProt P26041 1-577) | binds
Protein mago nashi homologue (from UniProt P61327 1-146) | binds
Talin-1 (from UniProt P26039 1-2541) | binds
Neutrophilic granule protein (protein, UniProt O08692 22-167) LRQLRYEEIVDRAIEAYNQGRQGRPLFRLLSATPPSSQNPATNIPLQFRIKETECTSTQERQPKDCDFLEDGEERNCTGKFFRRRQSTSLTLTCDRDCSREDTQETSFNDKQDVSEKEKFEDVPPHIRNIYEDAKYDIIGNILKNF | binds
Dihydrolipoyllysine-residue acetyltransferase component of pyruvate dehydrogenase complex, mitochondrial (protein, UniProt Q8BMF4 86-642) SLPPHQKVPLPSLSPTMQAGTIARWEKKEGEKISEGDLIAEVETDKATVGFESLEECYMAKILVPEGTRDVPVGSIICITVEKPQDIEAFKNYTLDLAAAAAPQAAPAAAPAPAAAPAAPSASAPGSSYPTHMQIVLPALSPTMTMGTVQRWEKKVGEKLSEGDLLAEIETDKATIGFEVQEEGYLAKILVPEGTRDVPLGAPLCIIVEKQEDIAAFADYRPTEVTSLKPQAAPPAPPPVAAVPPTPQPVAPTPSAAPAGPKGRVFVSPLAKKLAAEKGIDLTQVKGTGPEGRIIKKDIDSFVPSKAAPAAAAAMAPPGPRVAPAPAGVFTDIPISNIRRVIAQRLMQSKQTIPHYYLSVDVNMGEVLLVRKELNKMLEGKGKISVNDFIIKASALACLKVPEANSSWMDTVIRQNHVVDVSVAVSTPAGLITPIVFNAHIKGLETIASDVVSLASKAREGKLQPHEFQGGTFTISNLGMFGIKNFSAIINPPQACILAIGASEDKLIPADNEKGFDVASVMSVTLSCDHRVVDGAVGAQWLAEFKKYLEKPITMLL | binds
Splicing factor, proline- and glutamine-rich (protein, UniProt Q8VIJ6 1-699) MSRDRFRSRGGGGGGFHRRGGGGGRGGLHDFRSPPPGMGLNQNRGPMGPGPGGPKPPLPPPPPHQQQQQPPPQQPPPQQPPPHQQPPPHQPPHQQPPPPPQESKPVVPQGPGSAPGVSSAPPPAVSAPPANPPTTGAPPGPGPTPTPPPAVPSTAPGPPPPSTPSSGVSTTPPQTGGPPPPPAGGAGPGPKPGPGPGGPKGGKMPGGPKPGGGPGMGAPGGHPKPPHRGGGEPRGGRQHHAPYHQQHHQGPPPGGPGPRTEEKISDSEGFKANLSLLRRPGEKTYTQRCRLFVGNLPADITEDEFKRLFAKYGEPGEVFINKGKGFGFIKLESRALAEIAKAELDDTPMRGRQLRVRFATHAAALSVRNLSPYVSNELLEEAFSQFGPIERAVVIVDDRGRSTGKGIVEFASKPAARKAFERCSEGVFLLTTTPRPVIVEPLEQLDDEDGLPEKLAQKNPMYQKERETPPRFAQHGTFEYEYSQRWKSLDEMEKQQREQVEKNMKDAKDKLESEMEDAYHEHQANLLRQDLMRRQEELRRMEELHSQEMQKRKEMQLRQEEERRRREEEMMIRQREMEEQMRRQREESYSRMGYMDPRERDMRMGGGGTMNMGDPYGSGGQKFPPLGGGGGIGYEANPGVPPATMSGSMMGSDMRTERFGQGGAGPVGGQGPRGMGPGTPAGYGRGREEYEGPNKKPRF | binds
Pulmonary surfactant-associated protein D (protein, UniProt P50404 20-374) AEMKSLSQRSVPNTCTLVMCSPTENGLPGRDGRDGREGPRGEKGDPGLPGPMGLSGLQGPTGPVGPKGENGSAGEPGPKGERGLSGPPGLPGIPGPAGKEGPSGKQGNIGPQGKPGPKGEAGPKGEVGAPGMQGSTGAKGSTGPKGERGAPGVQGAPGNAGAAGPAGPAGPQGAPGSRGPPGLKGDRGVPGDRGIKGESGLPDSAALRQQMEALKGKLQRLEVAFSHYQKAALFPDGRSVGDKIFRTADSEKPFEDAQEMCKQAGGQLASPRSATENAAIQQLITAHNKAAFLSMTDVGTEGKFTYPTGEPLVYSNWAPGEPNNNGGAENCVEIFTNGQWNDKACGEQRLVICEF | binds
Heterogeneous nuclear ribonucleoprotein L (protein, UniProt Q8R081 1-586) MSRRLLPRAEKRRRRLEQRQQPDEQLRRAGAMVKMAAAGGGGGGGRYYGGGNEGGRAPKRLKTENAGDQHGGGGGGGSGAAGGGGGENYDDPHKTPASPVVHIRGLIDGVVEADLVEALQEFGPISYVVVMPKKRQALVEFEDVLGACNAVNYAADNQIYIAGHPAFVNYSTSQKISRPGDSDDSRSVNSVLLFTILNPIYSITTDVLYTICNPCGPVQRIVIFRKNGVQAMVEFDSVQSAQRAKASLNGADIYSGCCTLKIEYAKPTRLNVFKNDQDTWDYTNPNLSGQGDPGSNPNKRQRQPPLLGDHPAEYGGPHGGYHSHYHDEGYGPPPPHYEGRRMGPPVGGHRRGPSRYGPQYGHPPPPPPPPDYGPHADSPVLMVYGLDQSKMNCDRVFNVFCLYGNVEKVKFMKSKPGAAMVEMADGYAVDRAITHLNNNFMFGQKMNVCVSKQPAIMPGQSYGLEDGSCSYKDFSESRNNRFSTPEQAAKNRIQHPSNVLHFFNAPLEVTEENFFEICDELGVKRPTSVKVFSGKSERSSSGLLEWDSKSDALETLGFLNHYQMKNPNGPYPYTLKLCFSTAQHAS | binds

The remaining lines, values ahead:

binding | Molecule
binds | H-2 class I histocompatibility antigen, D-B alpha chain (from UniProt P01899 25-362)
binds | Histone H1.5 (from UniProt P43276 1-223)
binds | Serine/arginine-rich splicing factor 1 (from UniProt Q6PDM2 1-248)
binds | ATP-dependent RNA helicase A (from UniProt O70133 1-1380)
binds | Endoplasmic reticulum chaperone BiP (from UniProt P20029 20-655)
binds | Plasminogen (from UniProt P20918)
binds | Heterogeneous nuclear ribonucleoprotein K (from UniProt P61979 1-463)
binds | Na(+)/H(+) exchange regulatory cofactor NHE-RF2 (from UniProt Q9JHL1 1-337)
binds | Microtubule-associated protein 4 (from UniProt P27546 1-1125)
binds | Destrin (protein, UniProt Q9R0P5 1-165) MASGVQVADEVCRIFYDMKVRKCSTPEEIKKRKKAVIFCLSADKKCIVVEEGKEILVGDVGATITDPFKHFVGMLPEKDCRYALYDASFETKESRKEELMFFLWAPEQAPLKSKMIYASSKDAIKKKFPGIKHEYQANGPEDLNRTCIAEKLGGSLIVAFEGSPV
binds | Dimethylaniline monooxygenase [N-oxide-forming] 2 (protein, UniProt Q8K2I3 1-535) MAKKVVVIGAGVSGLISLKCCVDEGLEPTCFERTEDIGGLWRFKENVEDGRASIYRSVITNTSKEMSCFSDFPMPEDFPNFLHNSKLLEYFRIFAKKFDLLKYIQFQTTVISVKKRPDFASSGQWEVYTQSNGKEQRTVFDAVMVCSGHHIQPHLPLKSFPGIERFRGQYFHSREYKHPVGFEGKRILVVGIGNSAADIASELSKTAAQVFVSTRHGSWVMSRISEDGYPWDMVFHTRFSSMLRNVLPRTVVKWMMEQQMNRWFNHENYGLVPQNKYLMKEPVLNDDLPSRLLYGAIKVKTRVKELTETAVVFEDGTVEEDVDIIVFATGYTFSFSFLEDSLVKVEDNRVSLYKAMFPPHLEKPTLACIGLIQPLGSIFPTVELQARWATRVFKGLCSLPSETTMMADIVERNEKRVNLFGKSQSQILQTNYVDYLDELALEIGAKPDFVSLFFKDPKLAVKLYFGPCNSYQYRLVGPGQWEGARNAILTQKQRILKPLKTRTLQSSDSAPVSFLLKILGLLAVVLAFFFQLQGF
binds | Nucleolar RNA helicase 2 (protein, UniProt Q9JIK5 1-851) MPGKLRSGAKLGSDGAEESMETLPKPSEKKTRKEKTKSKTEEATEGMEEAVSSKAKKTNKKGPSEDDVDPPKSRKAKKQEEEPQDDTASTSKTSKKKKEPLEKQADSETKEIITEEPSEEEADMPKPKKMKKGKEANGDAGEKSPKLKNGLSQPSEEEADIPKPKKMKKGKEANGDAGEKSPKLKNGLSQPSEEEVDIPKPKKMKKGKEASGDAGEKSPRLKDGLSQPSEPKSNSSDAPGEESSSETEKEIPVEQKEGAFSNFPISEETVKLLKARGVNFLFPIQAKTFHHVYSGKDLIAQARTGTGKTFSFAIPLIEKLQGGLQERKRGRAPQVLVLAPTRELANQVSKDFSDITKKLSVACFYGGTPYGGQIERMRSGIDILVGTPGRIKDHLQNGKLDLTKLKHVVLDEVDQMLDMGFADQVEEILCVAYKKDSEDNPQTLLFSATCPHWVFNVAKKYMKSTYEQVDLIGKKTQKAAITVEHLAIKCHWTERAAVIGDVIRVYSGHQGRTIIFCETKKDAQELSQNTCIKQDAQSLHGDIPQKQREITLKGFRNGNFGVLVATNVAARGLDIPEVDLVVQSCPPKDVESYIHRSGRTGRAGRTGVCICFYQNKEEYQLAQVEQKAGIKFKRIGVPSATEIIKASSKDAIRLLDSVPPTAISHFKQSAEKLIEEKGAVEALAAALAHISGATSVDQRSLINSQAGFVTMILRCSIEMPNISYAWKELKEQLGESIDAKVKGMVFLKGKLGVCFDVRTEAVTEIQEKWHDSRRWQLTVATEQPELEGPPDGYRGRMGQRDGSRGAFRGQRGGSRNFRGQGQRGGSRNFRGQRPGGGNRGQKRSFSKAFGQ
binds | NHP2-like protein 1 (protein, UniProt Q9D0T1 1-128) MTEADVNPKAYPLADAHLTKKLLDLVQQSCNYKQLRKGANEATKTLNRGISEFIVMAADAEPLEIILHLPLLCEDKNVPYVFVRSKQALGRACGVSRPVIACSVTIKEGSQLKQQIQSIQQSIERLLV
binds | Complement C1q subcomponent subunit C (protein, UniProt Q02105 30-246) SAGCYGIPGMPGMPGAPGKDGHDGLQGPKGEPGIPAVPGTRGPKGQKGEPGMPGHRGKNGPRGTSGLPGDPGPRGPPGEPGVEGRYKQKHQSVFTVTRQTTQYPEANALVRFNSVVTNPQGHYNPSTGKFTCEVPGLYYFVYYTSHTANLCVHLNLNLARVASFCDHMFNSKQVSSGGVLLRLQRGDEVWLSVNDYNGMVGIEGSNSVFSGFLLFPD

Source: publication PMC10284794
